Where two headings read alike, the source gives them in different places. No constants are given. Whether binding was seen depends on the method and setting. Binding calls can cover weak binding; strength is not graded here.
Columns and labels:
Assay in all cases: two-hybrid
[1] = target: Neuroligin-1 intracellular domain, wild type (rat) (UniProt Q62765)
[2] = target: Neuroligin-3 intracellular domain, wild type S799 (rat) (UniProt Q62889)
[3] = target: Neuroligin-2 intracellular domain, wild type (rat) (UniProt Q62888)
[4] = target: Neuroligin-4 intracellular domain, wild type (mouse) (UniProt B0F2B4)
[5] = target: Neuroligin-1 intracellular domain, wild type (rat) (UniProt Q62765); remark: listed apart in the source
[6] = target: Neuroligin-3 intracellular domain, wild type S799 (rat) (UniProt Q62889); remark: listed apart in the source
[7] = target: Neuroligin-4 intracellular domain, phospho-null mutant of the Gephyrin-binding site serine (mouse)
[8] = target: Neuroligin-1 intracellular domain, phospho-null mutant of the Gephyrin-binding site serine (rat)
[9] = target: Neuroligin-2 intracellular domain, wild type (rat) (UniProt Q62888); remark: listed apart in the source
[10] = target: Neuroligin-4 intracellular domain, wild type (mouse) (UniProt B0F2B4); remark: listed apart in the source

Protein sequences, listed by entry. Tags and fused reporters are not part of them. Lines headed by an entry give the natural chain unless they say otherwise; changes in a name come on top.
UniProt Q62765: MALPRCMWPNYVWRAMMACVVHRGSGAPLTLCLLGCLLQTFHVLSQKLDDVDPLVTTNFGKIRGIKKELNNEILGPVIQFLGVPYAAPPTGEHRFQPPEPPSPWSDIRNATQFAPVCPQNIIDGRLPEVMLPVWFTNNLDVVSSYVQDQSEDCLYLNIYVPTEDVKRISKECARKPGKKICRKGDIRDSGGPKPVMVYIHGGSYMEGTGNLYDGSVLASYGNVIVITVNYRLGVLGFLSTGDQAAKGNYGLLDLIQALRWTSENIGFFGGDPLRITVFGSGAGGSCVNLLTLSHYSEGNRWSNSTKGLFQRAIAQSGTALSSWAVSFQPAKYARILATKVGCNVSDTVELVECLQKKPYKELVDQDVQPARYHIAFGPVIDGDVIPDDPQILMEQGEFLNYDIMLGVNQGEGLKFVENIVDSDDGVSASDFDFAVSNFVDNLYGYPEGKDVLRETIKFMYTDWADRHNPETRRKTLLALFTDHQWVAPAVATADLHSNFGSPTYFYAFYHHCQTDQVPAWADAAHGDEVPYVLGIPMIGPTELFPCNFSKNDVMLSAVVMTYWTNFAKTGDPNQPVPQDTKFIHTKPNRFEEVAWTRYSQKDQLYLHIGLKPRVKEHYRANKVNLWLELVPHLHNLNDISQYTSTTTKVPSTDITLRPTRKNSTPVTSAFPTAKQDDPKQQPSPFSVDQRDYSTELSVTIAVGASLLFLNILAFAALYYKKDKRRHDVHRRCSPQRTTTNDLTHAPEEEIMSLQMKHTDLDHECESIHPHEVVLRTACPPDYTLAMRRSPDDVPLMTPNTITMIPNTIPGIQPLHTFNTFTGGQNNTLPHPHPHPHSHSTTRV
UniProt Q62889: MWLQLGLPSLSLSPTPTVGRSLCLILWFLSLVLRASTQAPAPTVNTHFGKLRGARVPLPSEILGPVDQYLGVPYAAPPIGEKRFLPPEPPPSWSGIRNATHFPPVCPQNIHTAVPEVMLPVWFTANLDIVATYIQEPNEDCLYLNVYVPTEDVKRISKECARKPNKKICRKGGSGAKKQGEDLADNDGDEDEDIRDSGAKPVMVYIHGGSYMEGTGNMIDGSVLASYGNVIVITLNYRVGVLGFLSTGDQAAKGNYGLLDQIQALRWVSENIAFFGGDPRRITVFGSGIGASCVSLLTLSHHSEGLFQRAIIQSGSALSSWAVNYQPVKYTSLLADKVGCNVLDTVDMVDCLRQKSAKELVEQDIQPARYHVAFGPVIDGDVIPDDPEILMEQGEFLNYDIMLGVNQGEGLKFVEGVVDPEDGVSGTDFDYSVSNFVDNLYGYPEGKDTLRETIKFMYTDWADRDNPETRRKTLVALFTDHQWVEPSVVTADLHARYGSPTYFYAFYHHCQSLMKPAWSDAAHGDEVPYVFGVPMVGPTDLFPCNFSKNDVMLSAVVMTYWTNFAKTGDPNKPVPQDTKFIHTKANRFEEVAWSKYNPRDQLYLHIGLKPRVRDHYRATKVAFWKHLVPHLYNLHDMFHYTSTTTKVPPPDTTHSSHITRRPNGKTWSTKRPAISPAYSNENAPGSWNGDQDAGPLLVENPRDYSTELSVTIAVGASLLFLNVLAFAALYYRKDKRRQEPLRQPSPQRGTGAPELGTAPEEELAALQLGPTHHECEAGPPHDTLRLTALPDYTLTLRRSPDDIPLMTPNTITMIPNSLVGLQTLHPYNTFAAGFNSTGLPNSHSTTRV
UniProt Q62888: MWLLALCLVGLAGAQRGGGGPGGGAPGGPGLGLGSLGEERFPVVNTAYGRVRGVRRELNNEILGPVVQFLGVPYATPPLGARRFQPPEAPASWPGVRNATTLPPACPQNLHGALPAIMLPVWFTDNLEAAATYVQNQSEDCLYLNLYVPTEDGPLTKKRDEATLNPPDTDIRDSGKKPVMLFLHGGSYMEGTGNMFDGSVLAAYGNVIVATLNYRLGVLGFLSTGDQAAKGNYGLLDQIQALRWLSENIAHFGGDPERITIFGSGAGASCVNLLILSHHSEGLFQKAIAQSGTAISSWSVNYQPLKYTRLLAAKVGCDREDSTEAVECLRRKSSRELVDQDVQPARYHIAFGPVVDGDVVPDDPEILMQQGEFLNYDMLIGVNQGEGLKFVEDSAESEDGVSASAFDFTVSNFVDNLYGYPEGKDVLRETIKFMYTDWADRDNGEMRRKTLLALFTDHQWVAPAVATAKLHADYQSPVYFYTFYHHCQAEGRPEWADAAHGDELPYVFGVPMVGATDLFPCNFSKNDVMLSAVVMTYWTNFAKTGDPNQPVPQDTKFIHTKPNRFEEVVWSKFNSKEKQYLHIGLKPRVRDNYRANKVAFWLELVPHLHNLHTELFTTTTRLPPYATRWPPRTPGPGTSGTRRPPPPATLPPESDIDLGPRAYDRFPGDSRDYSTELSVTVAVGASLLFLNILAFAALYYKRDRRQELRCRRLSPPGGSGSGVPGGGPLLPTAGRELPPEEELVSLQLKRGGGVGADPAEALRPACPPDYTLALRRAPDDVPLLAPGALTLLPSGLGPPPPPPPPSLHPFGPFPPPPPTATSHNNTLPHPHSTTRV
UniProt B0F2B4: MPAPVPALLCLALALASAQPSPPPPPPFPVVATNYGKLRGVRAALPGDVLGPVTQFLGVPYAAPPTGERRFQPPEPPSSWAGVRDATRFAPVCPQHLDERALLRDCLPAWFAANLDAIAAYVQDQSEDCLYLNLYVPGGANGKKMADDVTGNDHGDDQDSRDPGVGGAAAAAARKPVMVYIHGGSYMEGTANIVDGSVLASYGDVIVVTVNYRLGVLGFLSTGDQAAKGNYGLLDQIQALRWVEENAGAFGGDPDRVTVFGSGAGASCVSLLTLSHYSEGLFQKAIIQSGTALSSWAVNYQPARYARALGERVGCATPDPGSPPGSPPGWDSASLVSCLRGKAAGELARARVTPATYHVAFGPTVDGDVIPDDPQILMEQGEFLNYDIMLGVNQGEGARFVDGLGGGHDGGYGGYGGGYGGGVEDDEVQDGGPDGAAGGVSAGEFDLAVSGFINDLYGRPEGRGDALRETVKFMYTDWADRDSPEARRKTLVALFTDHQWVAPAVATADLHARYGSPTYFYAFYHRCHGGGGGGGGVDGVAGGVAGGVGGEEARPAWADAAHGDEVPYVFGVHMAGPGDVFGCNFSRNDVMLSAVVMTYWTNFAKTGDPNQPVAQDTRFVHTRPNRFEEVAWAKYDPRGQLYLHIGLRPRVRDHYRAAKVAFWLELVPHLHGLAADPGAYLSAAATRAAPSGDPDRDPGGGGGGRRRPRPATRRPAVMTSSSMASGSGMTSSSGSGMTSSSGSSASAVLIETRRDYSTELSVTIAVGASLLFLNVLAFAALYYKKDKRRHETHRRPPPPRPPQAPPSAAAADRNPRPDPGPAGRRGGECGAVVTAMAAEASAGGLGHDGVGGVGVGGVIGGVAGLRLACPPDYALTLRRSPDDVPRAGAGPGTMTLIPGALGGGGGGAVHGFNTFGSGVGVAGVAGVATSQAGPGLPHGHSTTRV
UniProt O88382: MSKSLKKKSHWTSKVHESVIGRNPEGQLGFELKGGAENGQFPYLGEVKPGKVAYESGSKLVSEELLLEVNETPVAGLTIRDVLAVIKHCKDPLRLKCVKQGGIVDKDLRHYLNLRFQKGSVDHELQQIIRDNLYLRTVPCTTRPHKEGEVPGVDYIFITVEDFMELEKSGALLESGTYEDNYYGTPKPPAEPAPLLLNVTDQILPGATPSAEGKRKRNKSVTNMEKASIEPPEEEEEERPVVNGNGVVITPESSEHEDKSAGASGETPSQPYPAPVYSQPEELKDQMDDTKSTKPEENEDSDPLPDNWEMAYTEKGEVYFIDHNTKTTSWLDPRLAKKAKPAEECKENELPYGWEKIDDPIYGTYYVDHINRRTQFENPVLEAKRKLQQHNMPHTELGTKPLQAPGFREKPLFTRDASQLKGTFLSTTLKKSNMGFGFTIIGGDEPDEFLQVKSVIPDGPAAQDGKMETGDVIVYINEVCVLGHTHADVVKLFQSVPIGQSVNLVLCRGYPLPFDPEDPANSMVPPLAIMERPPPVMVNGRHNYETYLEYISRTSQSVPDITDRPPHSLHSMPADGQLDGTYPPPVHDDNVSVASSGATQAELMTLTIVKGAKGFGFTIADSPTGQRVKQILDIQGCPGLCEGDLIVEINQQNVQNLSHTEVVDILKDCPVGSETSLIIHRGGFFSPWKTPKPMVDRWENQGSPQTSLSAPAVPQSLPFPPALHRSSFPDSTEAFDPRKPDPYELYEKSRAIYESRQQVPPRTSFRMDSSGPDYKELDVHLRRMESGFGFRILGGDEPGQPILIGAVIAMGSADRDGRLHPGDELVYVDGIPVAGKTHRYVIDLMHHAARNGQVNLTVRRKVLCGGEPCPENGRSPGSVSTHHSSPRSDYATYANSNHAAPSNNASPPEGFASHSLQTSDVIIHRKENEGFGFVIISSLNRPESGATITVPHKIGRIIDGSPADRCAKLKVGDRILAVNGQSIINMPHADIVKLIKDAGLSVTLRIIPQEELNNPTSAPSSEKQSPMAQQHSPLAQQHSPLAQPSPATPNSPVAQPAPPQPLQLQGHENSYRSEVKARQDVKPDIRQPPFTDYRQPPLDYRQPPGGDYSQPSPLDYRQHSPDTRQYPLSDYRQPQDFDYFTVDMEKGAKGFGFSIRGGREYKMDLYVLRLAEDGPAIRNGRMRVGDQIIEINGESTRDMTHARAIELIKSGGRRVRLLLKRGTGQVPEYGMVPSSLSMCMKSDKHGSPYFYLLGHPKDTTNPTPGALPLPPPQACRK

Measured: binding

S-SCAM fragment encompassing PDZ domains 1-3 (from UniProt O88382) (domain or fragment)
binds: [1] | [2] | [3] | [4]

B1: Gephyrin, full length (protein, UniProt Q03555 1-768)
chain: MATEGMILTNHDHQIRVGVLTVSDSCFRNLAEDRSGINLKDLVQDPSLLGGTISAYKIVPDEIEEIKETLIDWCDEKELNLILTTGGTGFAPRDVTPEKFPTFPFCGLQKGATKEVIEREAPGMALAMLMGSLNVTPLGMLSRPVCGIRGKTLIINLPGSKKGSQECFQFILPALPHAIDLLRDAIVKVKEVHDELEDLPSPPPPLSPPPTTSPHKQTEDKGVQCEEEEEEKKDSGVASTEDSSSSHITAAALAAKIPDSIISRGVQVLPRDTASLSTTPSESPRAQATSRLSTASCPTPKQIRRPDESKGVASRVGSLKVQSRCSSKENILRASHSAVDITKVARRHRMSPFPLTSMDKAFITVLEMTPVLGTEIINYRDGMGRVLAQDVYAKDNLPPFPASVKDGYAVRAADGPGDRFIIGESQAGEQPTQTVMPGQVMRVTTGAPIPCGADAVVQVEDTELIRESDDGTEELEVRILVQARPGQDIRPIGHDIKRGECVLAKGTHMGPSEIGLLATVGVTEVEVNKFPVVAVMSTGNELLNPEDDLLPGKIRDSNRSTLLATIQEHGYPTINLGIVGDNPDDLLNALNEGISRADVIITSGGVSMGEKDYLKQVLDIDLHAQIHFGRVFMKPGLPTTFATLDIDGVRKIIFALPGNPVSAVVTCNLFVVPALRKMQGILDPRPTIIKARLSCDVKLDPRPEYHRCILTWHHQEPLPWAQSTGNQMSSRLMSMRSANGLLMLPPKTEQYVELHKGEVVDVMVIGRL
binds: [5] | [6] | [7] | [8] | [9] | [10]

Reference: publication doi:10.1101/2022.07.23.501257
